Literature values in patent US20060062074A1, “Method for intracellular modifications within living cells using pulsed electric fields” (priority 2001, published 2006).
For at least one compound, name, drawing or mass did not settle the structure.

System: WER1-Rb-1 retinoblastoma cells
Conditions: WER1-Rb-1 cells

In the case of `CC1=C(/C=C/C(C)=C/C=C/C(C)=C/C(=O)O)C(C)(C)CCC1` [RA, retinoic acid], the terminal cell differentiation is listed as “induces terminal cell differentiation”.
